# Assay results: PubChem BioAssay AID445 (National Center for Advancing Translational Sciences (NCATS), 2006)
# The list shows a part of the results. These are further read-outs of the screen, such as a control signal, another cell line or another target. No call is given for them. Compounds called inactive in the main read-out are mostly missing here. Potencies come from curve fits of mixed quality, noted in brackets.
# Test: IkB Signaling
# Conditions: ABC-DLBCL IkBa-CBG/CBR dual luciferase ratio (green luciferase fused to IkBa over red control in OCI-Ly3 lymphoma cells), 4 h
# Method in brief: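 Luminescence ratio of IκBα-fused green versus native red beetle luciferase in OCI-Ly3 cells, 4 h post-doxycycline with compound; red signal alone, scaled from basal (0%) to zero light (-100%), flagged nonspecific or cytotoxic effects.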
# [1] = measured here: control luc red channel unless noted
smiles,measurement,setting,value
CCc1ccccc1NS(=O)(=O)c1cc(Br)cc2c1N(C(=O)C1CC1)CC2,AC50,[1],"10 µM [falling, partial curve]"
COc1ccccc1NC(=O)Cn1c(=O)n(CCc2ccccc2)c(=O)c2c3c(sc21)CN(C(C)=O)CC3,AC50,[1],"3.98 µM [falling, single point]"
Cc1nnc(SCc2nc(-c3ccc(Cl)cc3)no2)n1-c1ccc(F)cc1,AC50,[1],"20 µM [falling, partial curve]"
O=C(c1ccccc1)n1nc(-c2ccco2)nc1NCc1cccs1,AC50,[1],"1.58 µM [rising, partial curve]"
Cc1ccc(Cn2cc(/C=C(/C#N)C(=O)Nc3cccc(Cl)c3)c3ccccc32)cc1,AC50,[1],"3.16 µM [falling, partial curve]"
O=c1cc(-c2ccccc2)nc2cc(-c3ccc(F)cc3)[nH]n12,AC50,[1],"31.6 µM [falling, partial curve]"
COc1cc2ccccc2cc1C(=O)Nc1cc(-c2nc3ccccc3o2)ccc1C,AC50,[1],"2 µM [falling, full curve]"
Cc1c(C(=O)OCC2CCCCC2)[nH]c2c1C(=O)CC(c1ccc(Cl)cc1)C2 (stereo not given),AC50,[1],"3.98 µM [falling, partial curve]"
CCn1c(=O)cc(OCC(=O)NCc2ccccc2Cl)c2ccccc21,AC50,[1],"0.794 µM [falling, partial curve, poor fit]"
CCOC(=O)c1c(C)oc2c1c(C(c1cccnc1)N1CCN(C)CC1)c(O)c1ccccc12 (stereo not given),AC50,[1],"12.6 µM [falling, partial curve]"
COc1ccc(CNC(=O)COC(=O)c2n[nH]c3ccccc23)cc1OC,AC50,[1],"25.1 µM [falling, partial curve]"
Cc1ccccc1C(=O)Nc1nnc(S(=O)(=O)N(C)Cc2ccc(Cl)cc2)s1,AC50,[1],"12.6 µM [falling, partial curve]"
O=C(Cc1ccc(F)cc1)N1CCC(c2nc3c(nnn3Cc3ccc(F)cc3)c(=O)[nH]2)CC1,AC50,[1],"15.8 µM [falling, partial curve]"
Cc1ccc(O)c(N)c1,AC50,measured here: IkB-luc green channel,"31.6 µM [rising, partial curve]"
same,AC50,measured here: control luc red channel,"5.01 µM [falling, partial curve]"
COc1ccc(CC(=O)N2CC(=O)Nc3ccc(Br)cc3C2c2ccc(F)cc2)cc1 (stereo not given),AC50,[1],"39.8 µM [falling, single point]"
CCCCNc1nc(Oc2ccc(OCCC)nn2)nc(N(C)C)n1,AC50,[1],"10 µM [falling, partial curve, poor fit]"
COc1ccc(OC)c(CCNC(=O)CN2C(=O)COc3ccc(S(=O)(=O)N4CCC(C)CC4)cc32)c1,AC50,[1],"15.8 µM [falling, partial curve]"
COc1ccc(CC(=O)Nc2c(C(=O)Nc3ccc(F)cc3)oc3ccccc23)cc1OC,AC50,[1],"15.8 µM [rising, partial curve]"
COc1ccc(Cn2nnnc2CN2CCC(c3nc4ccccc4s3)CC2)cc1,AC50,[1],"25.1 µM [falling, partial curve]"
O=C(CCSCc1ccccc1F)N1CCN(c2ccc(Cl)cc2)CC1,AC50,[1],"39.8 µM [falling, single point]"
COc1cc2c(C(=O)Nc3ccc(C)cc3Br)cn(C)c(=O)c2cc1OC,AC50,[1],"10 µM [falling, full curve]"
CCCN1CCN(CCNC(=O)Nc2cc(C)ccc2OC)CC1,AC50,[1],"10 µM [falling, partial curve]"
COc1ccc(-n2c(/C=C/c3cccc4ccccc34)nc3ccccc3c2=O)cc1Cl,AC50,[1],"20 µM [falling, partial curve, poor fit]"
FC(F)(F)c1cnc2c(c1)Nc1ccccc1S2,AC50,[1],"10 µM [falling, partial curve]"
CC(C)(C)c1ccc(C(=O)NC(Cc2c[nH]c3ccccc23)C(=O)OCC(=O)c2ccccc2)cc1 (stereo not given),AC50,[1],"3.98 µM [falling, partial curve]"
COc1ccc(Cn2c(=O)[nH]c3cc(C(=O)N4CCN(c5cccc(OC)c5)CC4)ccc3c2=O)cc1,AC50,[1],"0.0501 µM [falling, full curve, poor fit]"
Cn1cc(C(=O)NCc2ccc(Cl)cc2)c(=O)c2cc(S(=O)(=O)N3CCCCCC3)ccc21,AC50,[1],"6.31 µM [falling, partial curve]"
CCC1CN(C(=O)N2CCC(C(=O)NCCC3=CCCCC3)CC2)c2cc(C)ccc2O1 (stereo not given),AC50,[1],"15.8 µM [falling, partial curve]"
C[C@@H]1C(=O)O[C@H]2[C@@H](O)[C@@]34[C@H]5C[C@H](C(C)(C)C)[C@@]36[C@H](OC(=O)[C@@H]6O)O[C@@]4(C(=O)O5)[C@@]12O,AC50,[1],"0.316 µM [rising, single point]"
CCn1cc2nc(SCc3ccc(C)cc3)n(CCc3ccccc3)c(=O)c2n1,AC50,[1],"31.6 µM [falling, partial curve]"
Cc1ccc(OCC(=O)Nc2ccc(Cl)c(-c3nc4ccccc4[nH]3)c2)cc1C,AC50,[1],"10 µM [falling, partial curve]"
C(=N\n1cnnc1)/c1cccc(OCCOc2ccccc2)c1,AC50,[1],"12.6 µM [falling, partial curve]"
COc1ccc(C)cc1NC(=O)C(=O)NCC1(c2ccccc2)CCCC1,AC50,[1],"39.8 µM [falling, single point]"
CC(C)(C)c1ccc(C2NC(=O)c3n[nH]c(-c4cccs4)c32)cc1 (stereo not given),AC50,[1],"31.6 µM [falling, single point]"
Cc1ccc(NC(=O)Cn2c(CCC(=O)O)ccc2-c2ccc(Cl)cc2)cc1,AC50,[1],"25.1 µM [falling, single point]"
Cc1ccc(Cn2cc(CCC(=O)NCc3ccccc3F)c3ccccc32)cc1,AC50,[1],"0.158 µM [falling, partial curve]"
O=C(Nc1ccccc1)N1CCN2C(=O)c3ccccc3C12c1ccccc1 (stereo not given),AC50,[1],"20 µM [falling, partial curve]"
Cn1c(=O)n(Cc2ccccc2)c(=O)c2c1nc1n2CCCN1Cc1ccccc1,AC50,[1],"7.94 µM [falling, partial curve]"
Cc1cc(C)c2c(n1)SCCN2C(=O)Nc1ccc(C(=O)Nc2cc(Cl)ccc2C)cc1,AC50,[1],"12.6 µM [falling, partial curve, poor fit]"

# 2 entries drawn at random from the list so far, as already listed:
smiles,measurement,setting,value
O=C(CCSCc1ccccc1F)N1CCN(c2ccc(Cl)cc2)CC1,AC50,[1],"39.8 µM [falling, single point]"
O=C(c1ccccc1)n1nc(-c2ccco2)nc1NCc1cccs1,AC50,[1],"1.58 µM [rising, partial curve]"
